Results reported in the supplement of paper PMC3334620.
Whole data set: some 33,000 sequences, median “E-score (-0.5 to 0.5)” near -0.0034, cut for the highest 2% near 0.25. The list shows a part of the results.

molecular target: T1, Yap3 (UniProt P38749); assay: PBM E-score (8-mer binding enrichment) (E-score (-0.5 to 0.5)); higher = stronger / more preferred TF binding; details: protein concentration: 100 nM; construct: GST-full length
T1 sequence: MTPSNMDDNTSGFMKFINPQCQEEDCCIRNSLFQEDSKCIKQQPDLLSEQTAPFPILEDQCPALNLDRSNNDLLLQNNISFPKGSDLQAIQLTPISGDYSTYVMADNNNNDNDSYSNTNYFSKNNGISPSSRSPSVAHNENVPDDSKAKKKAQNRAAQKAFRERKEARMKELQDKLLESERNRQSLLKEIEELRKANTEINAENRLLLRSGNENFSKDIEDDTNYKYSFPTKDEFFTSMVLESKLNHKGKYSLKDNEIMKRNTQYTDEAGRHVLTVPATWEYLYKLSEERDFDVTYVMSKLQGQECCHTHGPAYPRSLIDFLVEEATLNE
In short: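 Yeast transcription factors carrying a GST tag, as full-length proteins or DNA-binding domains, were produced by PURExpress in vitro transcription/translation. About 100-200 nM protein was applied to universal all-10-mer Agilent arrays, double-stranded by primer extension on fresh or once-stripped slides. Bound protein was detected with fluorescent anti-GST, and scans were normalised with masliner. The Universal PBM Analysis Suite gave each ungapped eight-base word, pooled with its reverse complement, an E-score, a modified Wilcoxon-Mann-Whitney statistic.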

| Sequence | PBM E-score |
| --- | --- |
| GCTTAAAA | 0.0767 |
| CATTTCCA | 0.155 |
| GCGTCCAC | -0.303 |
| AATTGGTG | 0.204 |
| ACGGCGTC | -0.137 |
| CGTATAAC | -0.0132 |
| AGCACCCC | -0.178 |
| GGACATAA | 0.0711 |
| CTCGGGGA | -0.116 |
| AAGACATA | 0.248 |
| AACAAGTC | 0.0497 |
| CTCCAGAA | -0.194 |
| ACATCTAT | 0.178 |
| AGTATTAA | 0.186 |
| CTCGCAAG | 0.0168 |
| ACCCAGGC | -0.103 |
| CCGCCGAA | -0.016 |
| CAACTGAA | -0.159 |
| ATGGGGCA | -0.0507 |
| GGAGATCA | 0.00849 |
| CGCGGGAA | 0.103 |
| GTGAGTTA | -0.0397 |
| AGTGATGA | -0.117 |
| TAGTAAGA | 0.227 |
| ATAATAAG | 0.194 |

| Sequence | PBM E-score |
| --- | --- |
| CTCGCCCC | -0.153 |
| GTGTTGTA | -0.0537 |
| CAACACCC | -0.142 |
| CCTCACTC | -0.0175 |
| CGGCGGTC | -0.302 |
| AGGCTAAC | -0.0146 |
| TAGAATCA | -0.113 |
| ACTAGTGA | -0.129 |
| ATTAACCC | 0.026 |
| CCATCCTA | -0.0259 |
| CGGGCCAC | -0.193 |
| CCCATGTC | -0.146 |
| CTCCCTTA | -0.197 |
| AATGCGAC | 0.106 |
| CACGGGAC | -0.138 |
| GCCCAAGC | -0.053 |
| AAAACTTG | 0.108 |
| CTAAATTA | 0.212 |
| GCAGCCGC | -0.179 |
| AGTAGCGC | 0.0524 |
| GCTTGGAC | -0.0766 |
| GGTCGCCA | -0.186 |
| ACGCGTAG | 0.0219 |
| CATCACGG | 0.121 |
| GGTATGGA | 0.034 |

Reformatted: results already given
CTCCAGAA
  PBM E-score = -0.194
AATGCGAC
  PBM E-score = 0.106

(next part)

| Sequence | PBM E-score |
| --- | --- |
| AACAACCA | 0.184 |
| CTCCATCC | -0.186 |
| CGATGTAA | 0.065 |
| AACTGACC | -0.0946 |
| GGATCTAC | -0.147 |
| ATACAAGA | 0.0503 |
| TCGAAAGA | 0.0441 |
| AAGGTGCT | 0.034 |
| CCCAATGA | -0.0591 |
| CTAAGCAC | 0.0111 |
| GACTAGGC | -0.0571 |
| AGAGCACT | -0.00562 |
| CGGGTATA | 0.0375 |
| AGGGTCGG | -0.322 |
| AGTGTATC | 0.0463 |
| CGCAAGTC | -0.139 |
| ATGCGTAA | 0.195 |
| TATACCCA | -0.056 |
| CCCTTGCG | -0.242 |
| AGTGAGAT | 0.0269 |
| AATTGATC | -0.0282 |
| AGTCCCCG | -0.213 |
| GCCCACTA | -0.0504 |
| AGCCTATA | 0.138 |
| CCGCTGGC | -0.226 |

| Sequence | PBM E-score |
| --- | --- |
| GAAACACC | 0.0336 |
| CATAAGGG | 0.129 |
| CATTTGAA | 0.00597 |
| CTCTCCGC | -0.0263 |
| AACTGATA | 0.148 |
| CTGCAACC | -0.0751 |
| GTACTTTA | 0.166 |
| CCCAGCCG | -0.261 |
| CACTGTCC | -0.12 |
| ACACTCGA | 0.0243 |
| GCCGAGCC | -0.0118 |
| AATAGATG | 0.0851 |
| GTTAGTTA | 0.169 |
| CGTGCTGC | -0.132 |
| CGGGCACC | -0.331 |
| AAACTCTG | 0.0135 |
| ATTTTCTA | 0.176 |
| GGTACCAA | 0.0529 |
| AAAAGTTC | 0.178 |
| CTACCCGA | -0.00986 |
| ATGACCGA | -0.00271 |
| AGAGGCGG | -0.0723 |
| TAGTGAAA | -0.0103 |
| CCCTAGGC | -0.0928 |
| CGTACTAG | 0.0559 |

Rewritten with bars between the fields: entries from further up
Sequence | PBM E-score
ACACTCGA | 0.0243
GCCGAGCC | -0.0118
AATAGATG | 0.0851
GTTAGTTA | 0.169
CGTGCTGC | -0.132
CGGGCACC | -0.331

The listing continues.

| Sequence | PBM E-score |
| --- | --- |
| GGACCTTA | -0.152 |
| AGCTGCTC | -0.0976 |
| AAAGGTGC | -0.0396 |
| GGGACTAA | -0.168 |
| CACGCAAA | 0.0585 |
| AATTTCCA | 0.267 |
| GGTAGGCA | -0.101 |
| ATCGTACC | -0.0847 |
| AAGTCCAA | 0.0286 |
| CAGCTTAC | 0.157 |
| AAAAGGGC | -0.108 |
| AGGTAGAA | 0.0565 |
| GCGCATCA | 0.103 |
| GCACGGAA | -0.0926 |
| CGAGTTGA | 0.0975 |
| GGACCAGA | -0.117 |
| CGAGCTGC | -0.0374 |
| ACTTTCTA | 0.0796 |
| GAAACAAC | -0.0477 |
| ACATACGG | 0.0295 |
| GGTCTAAA | -0.00283 |
| CTCCACCA | -0.233 |
| TAAGACCA | 0.0423 |
| CGTCGGAC | -0.2 |
| TACAGGGA | -0.153 |

| Sequence | PBM E-score |
| --- | --- |
| AAGCGACC | 0.0995 |
| ATGCTTCA | -0.0284 |
| GGAGGACA | -0.0888 |
| AATGGCAT | 0.222 |
| AATACTGA | 0.0455 |
| AACGACCA | 0.0973 |
| AGAACTGG | -0.00913 |
| GGGGGCTA | -0.41 |
| CTACGACC | -0.0402 |
| AGCTCCGG | -0.126 |
| CACTCCTC | -0.171 |
| CAGGTCTA | 0.00211 |
| GAGGATGA | 0.169 |
| AGACCATC | -0.0467 |
| AACCATTA | 0.242 |
| AGGAGCTC | -0.235 |
| CCGGTCTA | -0.235 |
| GGACCCAC | -0.114 |
| CACGAGCG | -0.197 |
| CAGTGTAA | 0.165 |
| GGCACAAA | -0.0251 |
| GACAAAGA | 0.149 |
| ATTTAGAA | 0.0948 |
| CCGTACCG | -0.208 |
| CGGCCTGA | -0.359 |

| Sequence | PBM E-score |
| --- | --- |
| AAGCGGCC | -0.224 |
| CTAGACCA | -0.037 |
| CTGGTCAA | 0.00469 |
| ACGGAAGA | 0.131 |
| ATACACCG | 0.0328 |
| ATATTATA | 0.186 |
| CGCGAAAA | 0.0354 |
| CTTGGAGA | 0.0246 |
| CTTTTGAA | 0.04 |
| CCTAATCG | 0.189 |
| CTAATGAA | 0.21 |
| AAAGATAG | 0.094 |
| AACGCATC | -0.00198 |
| AAGTCTCA | -0.101 |
| ACTAACAC | 0.125 |
| AGTTAAGC | 0.0495 |
| GTCCAGCA | -0.0978 |
| CTTCTCCC | -0.29 |
| AGTCTCGA | -0.00667 |
| GACTCATA | -0.0271 |
| AGAAATCG | 0.0606 |
| TCGCGTAA | 0.302 |
| CGGCGCTC | -0.0618 |
| CTGATACC | 0.0477 |
| AACGGAAA | 0.171 |

7 entries from above, bar-delimited.
Sequence | PBM E-score
CTAGACCA | -0.037
ACGGAAGA | 0.131
AAAGATAG | 0.094
AGTTAAGC | 0.0495
GACTCATA | -0.0271
TCGCGTAA | 0.302
CGGCGCTC | -0.0618

Continuation:

| Sequence | PBM E-score |
| --- | --- |
| CAGGCCCG | -0.394 |
| CACTCACG | 0.0307 |
| ACATACTG | -0.024 |
| ATAATACG | 0.292 |
| CGGTGCTC | -0.0257 |
| AACGCTCT | -0.216 |
| AGGAGGTC | -0.328 |
| CAGCCCAG | -0.377 |
| CCCCGTTA | -0.058 |
| CGATCTTC | -0.0379 |
| AACTACGG | -0.153 |
| GCGATTCC | -0.036 |
| ACATACCT | 0.029 |
| GTACTGAC | -0.128 |
| AAATTTGA | 0.203 |
| CTTACAAG | -0.00238 |
| GCCGCGGA | -0.0953 |
| CTAGTCAG | -0.14 |
| CACCCGCG | 0.0334 |
| CGGGCAGC | -0.156 |
| AGCCGTTA | 0.082 |
| GCGGGTCA | -0.00762 |
| GAGACTAA | 0.147 |
| TATTCCCA | 0.104 |
| CAGAGTCA | -0.289 |

| Sequence | PBM E-score |
| --- | --- |
| AGATGGTC | -0.12 |
| TATAGGGA | -0.0201 |
| GGCCCTAA | -0.0404 |
| CGGATCCG | 0.022 |
| CTTACTCC | 0.0715 |
| GTGGCAAC | -0.0769 |
| ATGGGTAA | 0.0549 |
| CCGCCCCA | -0.121 |
| AGTGTCTA | -0.035 |
| CGTAATCA | 0.349 |
| ACTCCCCA | -0.176 |
| ATTCCTCG | 0.104 |
| AACCGTAT | -0.141 |
| ACTTACAA | 0.253 |
| AAGAGTAA | 0.0872 |
| CAACACCG | -0.142 |
| CTATAGTC | -0.132 |
| CCTAAGGA | -0.00257 |
| AGGCGACT | -0.111 |
